The test system of this assay is brain CYP2D. To be noted: propafenone i.c.v. pretreatment vs vehicle.

Where a name gives a salt, the structure may show the parent alone.

With `CCCNCC(O)COc1ccccc1C(=O)CCc1ccccc1` (centres unmarked) [propafenone, Propafenone hydrochloride], for the setting “p=0.09”, the “animals with increased tramadol analgesia at 30 min during microdialysis” value was 5 of 6. Moreover, the “animals with increase in analgesia AUC from 0–60 min after oral tramadol” value (within-animal) is on record as 10/11.
